For two molecules, binding results are on record in publication PMC10990277.

By UniProt entry, the sequences of proteins in these tests, tags left out.
UniProt P0DTC4: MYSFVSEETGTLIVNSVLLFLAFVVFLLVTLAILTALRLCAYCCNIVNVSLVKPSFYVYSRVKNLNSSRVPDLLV

No constants are given. Whether binding was seen depends on the method and setting. Binding seen in cells or lysates may run through a third protein. Here binding means that the protein was enriched with, or labelled near, the bait; the list need not be complete.

Test in all cases: proximity labelling
For assay [1], the target named is E-HA/TurboID^Site3 (SARS-CoV-2) (UniProt P0DTC4).
Assay [2] deals with E-HA/TurboID^Site4 (SARS-CoV-2), P0DTC4. The following applies: remark: other sources report otherwise.
The target of assay [3] is E-HA/TurboID^Site3 (SARS-CoV-2), P0DTC4. The following applies: remark: other sources report otherwise.

B1: Golgi-localized Gamma ear–containing adaptor–1 (GGA1) (protein, UniProt Q9UJY5 1-639)
chain: MEPAMEPETLEARINRATNPLNKELDWASINGFCEQLNEDFEGPPLATRLLAHKIQSPQEWEAIQALTVLETCMKSCGKRFHDEVGKFRFLNELIKVVSPKYLGSRTSEKVKNKILELLYSWTVGLPEEVKIAEAYQMLKKQGIVKSDPKLPDDTTFPLPPPRPKNVIFEDEEKSKMLARLLKSSHPEDLRAANKLIKEMVQEDQKRMEKISKRVNAIEEVNNNVKLLTEMVMSHSQGGAAAGSSEDLMKELYQRCERMRPTLFRLASDTEDNDEALAEILQANDNLTQVINLYKQLVRGEEVNGDATAGSIPGSTSALLDLSGLDLPPAGTTYPAMPTRPGEQASPEQPSASVSLLDDELMSLGLSDPTPPSGPSLDGTGWNSFQSSDATEPPAPALAQAPSMESRPPAQTSLPASSGLDDLDLLGKTLLQQSLPPESQQVRWEKQQPTPRLTLRDLQNKSSSCSSPSSSATSLLHTVSPEPPRPPQQPVPTELSLASITVPLESIKPSNILPVTVYDQHGFRILFHFARDPLPGRSDVLVVVVSMLSTAPQPIRNIVFQSAVPKVMKVKLQPPSGTELPAFNPIVHPSAITQVLLLANPQKEKVRLRYKLTFTMGDQTYNEMGDVDQFPPPETWGSL
Regarding B1, the binding entry in assay [1] is “binds”.

B2: PALS-1, Q8N3R9 1-675 (protein)
chain: MTTSHMNGHVTEESDSEVKNVDLASPEEHQKHREMAVDCPGDLGTRMMPIRRSAQLERIRQQQEDMRRRREEEGKKQELDLNSSMRLKKLAQIPPKTGIDNPMFDTEEGIVLESPHYAVKILEIEDLFSSLKHIQHTLVDSQSQEDISLLLQLVQNKDFQNAFKIHNAITVHMNKASPPFPLISNAQDLAQEVQTVLKPVHHKEGQELTALLNTPHIQALLLAHDKVAEQEMQLEPITDERVYESIGQYGGETVKIVRIEKARDIPLGATVRNEMDSVIISRIVKGGAAEKSGLLHEGDEVLEINGIEIRGKDVNEVFDLLSDMHGTLTFVLIPSQQIKPPPAKETVIHVKAHFDYDPSDDPYVPCRELGLSFQKGDILHVISQEDPNWWQAYREGDEDNQPLAGLVPGKSFQQQREAMKQTIEEDKEPEKSGKLWCAKKNKKKRKKVLYNANKNDDYDNEEILTYEEMSLYHQPANRKRPIILIGPQNCGQNELRQRLMNKEKDRFASAVPHTTRSRRDQEVAGRDYHFVSRQAFEADIAAGKFIEHGEFEKNLYGTSIDSVRQVINSGKICLLSLRTQSLKTLRNSDLKPYIIFIAPPSQERLRALLAKEGKNPKPEELREIIEKTREMEQNNGHYFDTAIVNSDLDKAYQELLRLINKLDTEPQWVPSTWLR
Consider B2, for which the binding result in assay [2] and in assay [3] was “binds” throughout.
